Publication PMC2793518
Results are given in words; binding and its absence hold for the method and conditions named. Some binding calls cover weakened binding; strength is not graded here.

By UniProt entry, the sequences of proteins in these tests, tags left out. Residues count along the entry.
UniProt P78310, residues 20-365: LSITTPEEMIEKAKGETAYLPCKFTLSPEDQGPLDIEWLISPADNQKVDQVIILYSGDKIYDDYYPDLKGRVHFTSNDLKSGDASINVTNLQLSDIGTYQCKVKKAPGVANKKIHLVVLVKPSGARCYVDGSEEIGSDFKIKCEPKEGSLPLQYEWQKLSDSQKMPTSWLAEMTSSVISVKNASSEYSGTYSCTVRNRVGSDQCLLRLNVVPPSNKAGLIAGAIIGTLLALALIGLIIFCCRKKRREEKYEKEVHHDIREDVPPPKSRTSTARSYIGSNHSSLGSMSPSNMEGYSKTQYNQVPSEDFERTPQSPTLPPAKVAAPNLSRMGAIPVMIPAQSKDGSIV
UniProt P15529, residues 35-392: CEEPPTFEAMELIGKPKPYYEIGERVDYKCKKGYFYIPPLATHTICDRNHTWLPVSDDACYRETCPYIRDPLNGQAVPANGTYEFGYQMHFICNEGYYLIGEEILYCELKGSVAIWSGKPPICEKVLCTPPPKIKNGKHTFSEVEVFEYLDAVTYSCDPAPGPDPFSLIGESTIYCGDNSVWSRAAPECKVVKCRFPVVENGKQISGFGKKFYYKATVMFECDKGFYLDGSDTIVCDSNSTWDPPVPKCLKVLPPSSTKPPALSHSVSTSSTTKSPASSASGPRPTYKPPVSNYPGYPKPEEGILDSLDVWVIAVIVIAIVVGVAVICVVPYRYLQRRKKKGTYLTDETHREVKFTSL

Assays:
[1] = target: CAR on A549 cells (human (endogenous in A549)) (UniProt P78310); experiment: flow cytometry on cells; A549 cultures infected with CRAD (low MOI, days 3 to 7; or MOI 5 or 50, 12 to 24 hr) or WT adenoviruses (until CPE or day 10); cell surface fiber detected with 4D2 mAb, CAR with RmcB mAb, CD46 with E4.3, J4.48 or MEM-258 mAb; staining on ice
[2] = target: CD46 on A549 cells (human (endogenous in A549)) (UniProt P15529); experiment: as above
[3] = target: CAR on CHO cells stably transfected with CAR cDNA (UniProt P78310); experiment: flow cytometry on cells; CHO-CAR and CHO-control transfectants incubated 2 hr at 37°C with 0.5 mL supernatant of Ad5-CRAD infected A549 cultures, washed; cell surface fiber detected with 4D2 mAb
[4] = target: CAR on A549 cells (human (endogenous in A549)) (UniProt P78310); experiment: flow cytometry on cells; fresh A549 cells incubated 2 hr at 37°C (also 0°C) with supernatants of Ad5-CRAD infected A549 cultures (whole, <300 KDa or >300 KDa fraction), washed; fiber detected with 4D2 mAb, CAR with RmcB mAb
[5] = target: CAR on A549 cells (human (endogenous in A549)) (UniProt P78310); experiment: flow cytometry on cells; A549 cells first incubated 2 hr at 37°C with 2 µg/ml recombinant Ad5 or Ad35 fiber knob, washed, then 2 hr at 37°C with 0.5 mL supernatant of Ad5-CRAD or Ad5F35-CRAD infected cultures; endogenous fiber detected with 4D2 mAb

Measured: binding

B1: Ad37 fiber (protein, UniProt Q64823 1-365)
chain: MSKRLRVEDDFNPVYPYGYARNQNIPFLTPPFVSSDGFKNFPPGVLSLKLADPITITNGDVSLKVGGGLTLQDGSLTVNPKAPLQVNTDKKLELAYDNPFESSANKLSLKVGHGLKVLDEKSAAGLKDLIGKLVVLTGKGIGTENLENTDGSSRGIGINVRAREGLTFDNDGYLVAWNPKYDTRTLWTTPDTSPNCTIAQDKDSKLTLVLTKCGSQILANVSLIVVAGKYHIINNKTNPKIKSFTIKLLFNKNGVLLDNSNLGKAYWNFRSGNSNVSTAYEKAIGFMPNLVAYPKPSNSKKYARDIVYGTIYLGGKPDQPAVIKTTFNQETGCEYSITFNFSWSKTYENVEFETTSFTFSYIAQE
binds: [1] | [2]

B2: Ad5 fiber (free trimeric fiber molecules released from Ad5-CRAD or WT Ad5 infected cells) (protein, UniProt P11818 1-581)
chain: MKRARPSEDTFNPVYPYDTETGPPTVPFLTPPFVSPNGFQESPPGVLSLRLSEPLVTSNGMLALKMGNGLSLDEAGNLTSQNVTTVSPPLKKTKSNINLEISAPLTVTSEALTVAAAAPLMVAGNTLTMQSQAPLTVHDSKLSIATQGPLTVSEGKLALQTSGPLTTTDSSTLTITASPPLTTATGSLGIDLKEPIYTQNGKLGLKYGAPLHVTDDLNTLTVATGPGVTINNTSLQTKVTGALGFDSQGNMQLNVAGGLRIDSQNRRLILDVSYPFDAQNQLNLRLGQGPLFINSAHNLDINYNKGLYLFTASNNSKKLEVNLSTAKGLMFDATAIAINAGDGLEFGSPNAPNTNPLKTKIGHGLEFDSNKAMVPKLGTGLSFDSTGAITVGNKNNDKLTLWTTPAPSPNCRLNAEKDAKLTLVLTKCGSQILATVSVLAVKGSLAPISGTVQSAHLIIRFDENGVLLNNSFLDPEYWNFRNGDLTEGTAYTNAVGFMPNLSAYPKSHGKTAKSNIVSQVYLNGDKTKPVTLTITLNGTQETGDTTPSAYSMSFSWDWSGHNYINEIFATSSYTFSYIAQE
not listed: [2]
binds: all other assays above
